The source of these data is PubChem BioAssay AID248 (DTP/NCI, 2004).

The list shows only some results of the screen, not a fair sample: it covers a few groups of compounds. Not every dose and run of a compound is shown. T/C is the treated group as % of the vehicle group. For survival time, the PubChem record calls one and a half times the control and up active, and a quarter to a half above the control has no call in these data; cut-offs in other NCI protocols can differ. Some T/C values are marked as having no survivor count here; that says nothing about deaths at the dose. Schedules are NCI's codes, read here as Q, the interval in days (D) or hours (H), X, the number of doses. Some doses were run more than once; their values stand side by side, smallest first.

The test relates to L1210 leukemia ip in BDF1 mice, survival T/C. Nature of the test: NCI In Vivo Anticancer Drug Screen. Data for tumor model L1210 Leukemia (intraperitoneal) in B6D2F1 (BDF1) mice. Conditions: T/C endpoint: mean survival time, vehicle: saline, higher T/C = longer survival.

Take `CN(CCCl)CCCl.CN(CCCl)CCCl.[Cl][Co][Cl]`: the T/C reads like this: (dose: 12.5 mg/kg/injection, schedule: Q01DX009 (ip)) 93 % of control [survivor count not shown]; (dose: 25.0 mg/kg/injection, schedule: Q01DX009 (ip)) 106 % of control [survivor count not shown]; (dose: 50.0 mg/kg/injection, schedule: Q01DX009 (ip)) 111 % of control [survivor count not shown]; (dose: 50.0 mg/kg/injection, schedule: Q04DX003 (ip)) 100 [survivor count not shown] and 116 % of control [survivor count not shown]; (dose: 75.0 mg/kg/injection, schedule: Q04DX003 (ip)) 120 % of control [survivor count not shown]; (dose: 100.0 mg/kg/injection, schedule: Q01DX009 (ip)) 116 % of control [survivor count not shown]. Also, the T/C is 107 [survivor count not shown] and 120 % of control [survivor count not shown] (dose: 100.0 mg/kg/injection, schedule: Q04DX003 (ip)); 100 % of control [survivor count not shown] (dose: 150.0 mg/kg/injection, schedule: Q04DX003 (ip)).
